What all share (type): in vivo, rat
For data set [1], the system named is spontaneously hypertensive rats (SHR). The experiment in a line: Individual and combined effects of MANP and Fs on BP and aldosterone in spontaneously hypertensive rats (Example 1). On the procedure: Studies were conducted to examine the individual and combined effects of MANP (SEQ ID NO:3) and Fs on BP and aldosterone stimulation in spontaneously hypertensive rats (SHR), the most studied and widely used genetic model of human essential hypertension (Lerman et al. (2019) Hypertension 73(6):e87-e120). SHR (n=32) were randomized into ten groups: • Group 1—treated with vehicle saline (Veh); • Group 2—treated with 1 mg/kg Fs alone (Fs1); • Group 3—treated with 5 mg/kg Fs alone (Fs5); • Group 4—treated with 10 mg/kg Fs alone (Fs10); • Group 5—treated with 100 pmol/kg/min MANP alone (MANP100); • Group 6—treated with 300 pmol/kg/min MANP alone (MANP300); • Group 7—treated with 600 pmol/kg/min MANP alone (MANP600); • Group 8—treated with Fs5+MANP300; • Group 9—treated with Fs10+MANP300; and • Group 10—treated with Fs10+MANP600. Fs was given as a single bolus that, in groups 8, 9, and 10, was followed by a 60-minute infusion of MANP.

In a further data set the test system is SHR. Briefly: Acute study in SHR, neurohumoral analysis (plasma and urinary cGMP, aldosterone). On the procedure:
Acute Study Protocol in SHR: The cardiorenal and neurohumoral actions of MANP, Fs, or their combination were investigated in the genetic model of hypertension in male SHR (n=6 in each group). Rats were anesthetized in an induction chamber with inhaled Isoflurane 2.5%. During this brief state of anesthesia, the rats were administered IP Inactin 100 mg/kg to maintain anesthesia. An oxygen mask was used until the end of the experiment. The carotid artery was cannulated for arterial pressure measurements and the right jugular vein was cannulated for infusions. Pressures were recorded and analyzed digitally (Sonometrics, London, Ontario, Canada). […] Neurohormonal and Electrolyte Analysis: Plasma ANP was measured by radioimmunoassay (Phoenix Pharmaceuticals) as an assessment of MANP, as the ANP RIA fully detects MANP (Burnett et al. (1986) Science 231(4742):1145-1147). Plasma and urinary cGMP (Enzo Life Sciences) and aldosterone (DRG International, Springfield, NJ) were determined by ELISA. Inulin concentrations were measured using the anthrone method, as described elsewhere (Fuhr et al. (1955) Klin. Wochenschr 33:729-730). GFR was calculated by inulin clearance. Electrolytes were measured by flame photometry (IL943, Instrumentation Laboratory, UK). […] Statistical Analysis: Values are expressed as mean±standard error of mean (SEM). […]

Data set [2] can be described thus: Acute study in SHR, plasma ANP radioimmunoassay as assessment of MANP. The conditions noted are these: mean±SEM. The procedure:
Acute Study Protocol in SHR: The cardiorenal and neurohumoral actions of MANP, Fs, or their combination were investigated in the genetic model of hypertension in male SHR (n=6 in each group). Rats were anesthetized in an induction chamber with inhaled Isoflurane 2.5%. During this brief state of anesthesia, the rats were administered IP Inactin 100 mg/kg to maintain anesthesia. An oxygen mask was used until the end of the experiment. The carotid artery was cannulated for arterial pressure measurements and the right jugular vein was cannulated for infusions. Pressures were recorded and analyzed digitally (Sonometrics, London, Ontario, Canada). Via a small incision in the lower abdominal wall, the bladder was cannulated for urine sampling.
Immediately after preparation, a 30-minute equilibration period was started with intravenous inulin infusion. […] After baseline measurements, rats were randomly assigned to ten groups: • Group 1—treated with MANP100; • Group 2—treated with MANP300; • Group 3—treated with MANP600; • Group 4—treated with Fs1; • Group 5—treated with Fs5; • Group 6—treated with Fs10; • Group 7—treated with MANP300+Fs5; • Group 8—treated with MANP300+Fs10; • Group 9—treated with MANP600+Fs10; and • Group 10—treated with inulin, normal saline, or inulin and normal saline. For Groups 1-3, after a 15-minute lead-in of MANP infusion, MANP was continuously infused for a total of 60 minutes. Animals in Groups 4-6 received a single intravenous (IV) bolus administration of Fs. […]
Neurohormonal and Electrolyte Analysis: Plasma ANP was measured by radioimmunoassay (Phoenix Pharmaceuticals) as an assessment of MANP, as the ANP RIA fully detects MANP (Burnett et al. (1986) Science 231(4742):1145-1147). Plasma and urinary cGMP (Enzo Life Sciences) and aldosterone (DRG International, Springfield, NJ) were determined by ELISA. Inulin concentrations were measured using the anthrone method, as described elsewhere (Fuhr et al. (1955) Klin. Wochenschr 33:729-730). GFR was calculated by inulin clearance. Electrolytes were measured by flame photometry (IL943, Instrumentation Laboratory, UK). […]

Regarding `NS(=O)(=O)c1cc(C(=O)O)c(NCc2ccco2)cc1Cl` [Fs, furosemide], in data set [1] (Fs, MANP and Fs+MANP groups, p<0.05), the sodium excretion result is “enhanced”. For the same molecule, the Plasma aldosterone result in data set [1] (low and high dose Fs, 60 minutes) is given as “tended to increase”. The “Plasma cGMP” value in data set [1] (over 60 minutes, all dose groups) is reported as “not changed”; in the data set with SHR (Fs bolus groups, baseline, 30 and 60 minutes), “did not change”. For the same molecule, the “Urinary cGMP excretion compared to vehicle (control)” value in the data set with SHR (Fs groups, 60 minutes) is “no significant increase”. For the same molecule, the “Plasma ANP” value in data set [2] (60 min after Fs 1 mg/kg IV bolus) came to 14 ± 1 pg/mL; in data set [2] (60 min after Fs 5 mg/kg IV bolus), 16 ± 3 pg/mL; in data set [2] (60 min after Fs 10 mg/kg IV bolus), 19 ± 3 pg/mL.

The values above are taken from patent US20250381249A1, “COMBINATION TREATMENT FOR RESISTANT HYPERTENSION” (Mayo Foundation for Medical Education and Research, priority 2018, published 2025).
